System: HLA molecules of primary tumor samples
Test: Identification of tumor associated peptides presented on the cell surface (HLA immune precipitation, LC-MS)
Parameters: species or system human
Conditions: for Peptide Presentation on cancer entities: entities on which the peptide was presented, CLL = chronic lymphocytic leukemia, AML = acute myeloid leukemia, CML = Chronic myeloid leukemia; for Peptide Presentation on tumor types: tumor entities on which the peptide was found presented (Table 8b)

Substance	Peptide Presentation on cancer entities	Peptide Presentation on tumor types
177 (QENMQIQSF; listed as Homo sapiens) [compound 177]	CLL	BRCA, CCC, CRC, GC, HCC, HNSCC, MEL, NHL, NSCLCadeno, NSCLCsquam, OC, OSCAR, PACA, SCLC, UBC, UEC
178 (REYEHYWTEL; listed as Homo sapiens) [compound 178]	CLL	MEL, NHL, NSCLCadeno, NSCLCother, OSCAR
179 (AEIKQTEEKY; listed as Homo sapiens) [compound 179]	AML	HCC
180 (EEPAFNVSY; listed as Homo sapiens) [compound 180]	CLL	BRCA, CCC, GBC, NHL, NSCLCadeno, OC, OSCAR
181 (GEIKEPLEI; listed as Homo sapiens) [compound 181]	CLL	BRCA, CCC, CRC, GBC, GC, HCC, HNSCC, MEL, NHL, NSCLCadeno, NSCLCother, NSCLCsquam, OC, OSCAR, PACA, RCC, UEC
182 (AQNLSIIQY; listed as Homo sapiens) [compound 182]	CLL	BRCA, GBC, GC, HCC, MEL, NHL, NSCLCadeno, NSCLCother, NSCLCsquam, OSCAR, PRCA
183 (GESQDSTTAL; listed as Homo sapiens) [compound 183]	CLL	CCC, HNSCC, NHL, NSCLCadeno, NSCLCother, NSCLCsquam, OC
184 (RMPPFTQAF; listed as Homo sapiens) [compound 184]	CLL	BRCA, GBC, GC, MEL, NHL, NSCLCadeno, NSCLCother, NSCLCsquam, OC, PACA, PRCA, RCC, SCLC
185 (SEGDNVESW; listed as Homo sapiens) [compound 185]	CLL	NHL
186 (NEQKIVRF; listed as Homo sapiens) [compound 186]	CLL	
187 (SDAQRPSSF; listed as Homo sapiens) [compound 187]	CLL	NSCLCother, RCC
188 (YVDAGTPMY; listed as Homo sapiens) [compound 188]	CLL	GBC, GBM, GC, NSCLCadeno, NSCLCsquam
189 (VTEEPQRLFY; listed as Homo sapiens) [compound 189]	CLL	BRCA, CCC, GBC, GC, HCC, HNSCC, MEL, NHL, NSCLCadeno, NSCLCother, NSCLCsquam, OC, OSCAR, PACA, PRCA, SCLC, UBC, UEC
190 (HVDQDLTTY; listed as Homo sapiens) [compound 190]	AML	GBM, GC, NSCLCadeno, NSCLCother, NSCLCsquam, OC, PACA, PRCA
191 (ISEAGKDLLY; listed as Homo sapiens) [compound 191]	AML, CML, CLL	BRCA, CCC, GEJC, HNSCC, MEL, NHL, NSCLCadeno, NSCLCsquam, OSCAR, PACA, PRCA, SCLC, UEC
192 (RSDPGGGGLAY; listed as Homo sapiens) [compound 192]	AML	BRCA, CRC, GBC, GBM, GC, GEJC, HCC, HNSCC, MEL, NHL, NSCLCadeno, NSCLCother, NSCLCsquam, OC, OSCAR, PACA, PRCA, SCLC, UBC, UEC
193 (LTDSEKGNSY; listed as Homo sapiens) [compound 193]	CLL	GBC, GEJC, HCC, HNSCC, MEL, NHL, NSCLCadeno, NSCLCsquam, OC, PRCA
194 (YTDKKSIIY; listed as Homo sapiens) [compound 194]	CLL	
195 (YSDKEFAGSY; listed as Homo sapiens) [compound 195]	CLL	BRCA, CRC, GBC, GBM, GC, GEJC, HCC, HNSCC, MEL, NHL, NSCLCadeno, NSCLCother, NSCLCsquam, OSCAR, PACA, PRCA, RCC, SCLC, UBC, UEC
196 (FTDIDGQVY; listed as Homo sapiens) [compound 196]	CLL	BRCA, CCC, CRC, GBC, GBM, GC, HCC, HNSCC, MEL, NHL, NSCLCadeno, NSCLCother, NSCLCsquam, OSCAR, PACA, PRCA, RCC, SCLC, UBC, UEC
197 (SLADVHIEV; listed as Homo sapiens) [compound 197]	CLL	BRCA, CCC, CRC, GBC, GBM, GC, GEJC, HCC, HNSCC, MEL, NHL, NSCLCadeno, NSCLCother, NSCLCsquam, OC, OSCAR, PACA, PRCA, RCC, SCLC, UBC, UEC
198 (KLLGYDVHV; listed as Homo sapiens) [compound 198]	AML	BRCA, CRC, NHL, NSCLCother, OC, RCC, UEC
199 (AMPDSPAEV; listed as Homo sapiens) [compound 199]	AML	HNSCC, NHL, NSCLCadeno
200 (VMLQINPKL; listed as Homo sapiens) [compound 200]	CLL	BRCA, GBC, GBM, HCC, HNSCC, MEL, NHL, NSCLCadeno, NSCLCother, NSCLCsquam, OC, OSCAR, RCC, SCLC, UEC
201 (ILAAVETRL; listed as Homo sapiens) [compound 201]	CLL	BRCA, CCC, CRC, GBC, GBM, GC, GEJC, HCC, HNSCC, MEL, NHL, NSCLCadeno, NSCLCother, NSCLCsquam, OC, OSCAR, PACA, PRCA, RCC, SCLC, UBC, UEC

Substance	Peptide Presentation on cancer entities	Peptide Presentation on tumor types
202 (MVALPMVLV; listed as Homo sapiens) [compound 202]	CLL	
203 (FLLPKVQSI; listed as Homo sapiens) [compound 203]	CLL	BRCA, HCC, MEL, NHL, NSCLCadeno, NSCLCother, NSCLCsquam, OC, OSCAR
204 (FLLPKVQSIQL; listed as Homo sapiens) [compound 204]	CLL	MEL, NSCLCadeno, NSCLCother, NSCLCsquam
205 (FLINTNSEL; listed as Homo sapiens) [compound 205]	CLL	BRCA, CCC, CRC, GBC, GBM, GC, GEJC, HCC, HNSCC, MEL, NHL, NSCLCadeno, NSCLCother, NSCLCsquam, OC, OSCAR, PACA, PRCA, RCC, SCLC, UBC, UEC
206 (SLMDLQERL; listed as Homo sapiens) [compound 206]	CLL	BRCA, CCC, CRC, GBC, GBM, GEJC, HCC, HNSCC, MEL, NHL, NSCLCadeno, NSCLCother, NSCLCsquam, OC, OSCAR, PACA, PRCA, RCC, SCLC, UEC
207 (KLSDNILKL; listed as Homo sapiens) [compound 207]	CLL	CRC, GBC, MEL, NHL, PRCA
208 (KLNPQQAPLY; listed as Homo sapiens) [compound 208]	CLL	MEL, NHL, OSCAR, UEC
209 (KTLPAMLGTGK; listed as Homo sapiens) [compound 209]	CLL	NHL, OC
210 (RMYSQLKTLQK; listed as Homo sapiens) [compound 210]	CLL	MEL, NHL
211 (ATYNKQPMYR; listed as Homo sapiens) [compound 211]	CML	CCC, CRC, GBC, GC, MEL, NHL, NSCLCadeno, NSCLCsquam, OC, OSCAR, RCC, SCLC, UEC
212 (LLWHWDTTQSLK; listed as Homo sapiens) [compound 212]	CLL	
213 (RVYNIYIRR; listed as Homo sapiens) [compound 213]	AML	NHL, NSCLCadeno, OC
214 (ATGAATPKK; listed as Homo sapiens) [compound 214]	CLL	
215 (KATGAATPK; listed as Homo sapiens) [compound 215]	CLL	NSCLCsquam
216 (RIKAPSRNTIQK; listed as Homo sapiens) [compound 216]	CLL	NHL
217 (TTVPHVFSK; listed as Homo sapiens) [compound 217]	CLL	BRCA, CCC, CRC, GBC, GC, HCC, MEL, NHL, NSCLCadeno, NSCLCother, NSCLCsquam, OC, OSCAR, PACA, PRCA, RCC, SCLC, UEC
218 (RVLTGVFTK; listed as Homo sapiens) [compound 218]	CLL	NHL
219 (HSYSSPSTK; listed as Homo sapiens) [compound 219]	CLL	
220 (SISNLVFTY; listed as Homo sapiens) [compound 220]	AML	BRCA, CRC, GBC, GC, HCC, HNSCC, MEL, NSCLCadeno, NSCLCsquam, OC, OSCAR, PACA, PRCA, RCC, SCLC, UBC, UEC
221 (LLNRHILAH; listed as Homo sapiens) [compound 221]	CLL	MEL, UEC
222 (RYLDEINLL; listed as Homo sapiens) [compound 222]	AML	BRCA, CCC, CRC, GBC, GBM, GC, HCC, HNSCC, MEL, NHL, NSCLCadeno, NSCLCother, NSCLCsquam, OC, OSCAR, PACA, PRCA, RCC, SCLC, UBC, UEC
223 (RRMYPPPLI; listed as Homo sapiens) [compound 223]	CLL	HCC, MEL, NHL, NSCLCadeno, NSCLCother, NSCLCsquam, OC, SCLC, UEC
224 (VYEYVVERF; listed as Homo sapiens) [compound 224]	CLL	BRCA, CCC, CRC, GBC, GBM, GC, GEJC, HCC, HNSCC, MEL, NHL, NSCLCadeno, NSCLCother, NSCLCsquam, OC, OSCAR, PACA, PRCA, RCC, SCLC, UBC, UEC
225 (LPARFYQAL; listed as Homo sapiens) [compound 225]	CLL	BRCA, OSCAR
226 (YLNRHLHTW; listed as Homo sapiens) [compound 226]	CLL	NHL, NSCLCsquam

From patent US11135246B2, “Peptides and combination of peptides for use in immunotherapy against leukemias and other cancers” (Immatics Biotechnologies GmbH, priority 2017, dated 2021)
